# Read-outs that look alike come from different tables or passages of the source. No constants are given. Whether binding was seen depends on the method and setting. Binding seen in cells or lysates may run through a third protein. These calls come from enrichment with a bait or labelling near it, and not all partners need be listed. Tags and fused reporters may be left off the sequences shown.
# Sequences of proteins named here, by UniProt entry; tags and fusion partners are left off. A change or cut given only in a name is not applied to a line headed by its entry.
# UniProt Q96321: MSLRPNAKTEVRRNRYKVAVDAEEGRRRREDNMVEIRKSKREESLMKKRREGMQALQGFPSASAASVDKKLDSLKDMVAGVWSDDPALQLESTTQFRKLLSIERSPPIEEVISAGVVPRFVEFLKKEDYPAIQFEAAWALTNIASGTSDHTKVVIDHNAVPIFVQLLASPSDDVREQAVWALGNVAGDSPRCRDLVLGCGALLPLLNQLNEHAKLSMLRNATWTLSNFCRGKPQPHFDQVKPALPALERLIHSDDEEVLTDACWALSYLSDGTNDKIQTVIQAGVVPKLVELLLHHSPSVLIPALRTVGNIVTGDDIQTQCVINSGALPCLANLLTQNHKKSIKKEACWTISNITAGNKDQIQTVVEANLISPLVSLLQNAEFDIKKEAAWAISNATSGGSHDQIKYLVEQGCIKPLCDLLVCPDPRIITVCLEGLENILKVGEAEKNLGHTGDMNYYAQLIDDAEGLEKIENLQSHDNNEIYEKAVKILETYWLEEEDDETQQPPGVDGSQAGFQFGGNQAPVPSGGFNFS
# UniProt F4JPV4: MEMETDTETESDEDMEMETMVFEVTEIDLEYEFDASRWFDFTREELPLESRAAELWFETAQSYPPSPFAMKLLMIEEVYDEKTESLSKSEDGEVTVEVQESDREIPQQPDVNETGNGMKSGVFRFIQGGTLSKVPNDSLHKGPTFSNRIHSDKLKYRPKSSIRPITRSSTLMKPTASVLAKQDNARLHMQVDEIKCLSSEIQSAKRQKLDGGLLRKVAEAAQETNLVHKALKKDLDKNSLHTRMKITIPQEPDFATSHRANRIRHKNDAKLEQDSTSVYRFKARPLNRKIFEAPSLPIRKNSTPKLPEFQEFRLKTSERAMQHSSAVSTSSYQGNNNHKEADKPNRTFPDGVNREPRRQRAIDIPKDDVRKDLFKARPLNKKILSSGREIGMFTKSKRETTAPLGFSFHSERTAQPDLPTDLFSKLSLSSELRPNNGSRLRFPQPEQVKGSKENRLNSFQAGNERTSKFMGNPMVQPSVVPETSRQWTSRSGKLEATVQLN
# UniProt F4JL11: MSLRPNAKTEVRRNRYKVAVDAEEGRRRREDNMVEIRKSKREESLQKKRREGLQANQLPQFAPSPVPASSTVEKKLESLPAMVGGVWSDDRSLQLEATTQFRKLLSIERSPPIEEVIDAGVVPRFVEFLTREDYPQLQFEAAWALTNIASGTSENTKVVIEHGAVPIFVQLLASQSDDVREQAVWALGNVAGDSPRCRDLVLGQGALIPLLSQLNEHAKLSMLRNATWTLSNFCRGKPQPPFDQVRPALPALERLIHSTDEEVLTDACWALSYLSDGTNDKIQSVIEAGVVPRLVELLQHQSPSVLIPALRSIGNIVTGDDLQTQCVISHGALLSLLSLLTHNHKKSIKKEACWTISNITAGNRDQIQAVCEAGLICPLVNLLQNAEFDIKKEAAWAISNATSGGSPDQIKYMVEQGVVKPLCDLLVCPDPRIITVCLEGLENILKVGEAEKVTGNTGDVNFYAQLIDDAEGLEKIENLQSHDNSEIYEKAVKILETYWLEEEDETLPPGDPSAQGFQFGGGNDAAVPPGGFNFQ
# UniProt O80480: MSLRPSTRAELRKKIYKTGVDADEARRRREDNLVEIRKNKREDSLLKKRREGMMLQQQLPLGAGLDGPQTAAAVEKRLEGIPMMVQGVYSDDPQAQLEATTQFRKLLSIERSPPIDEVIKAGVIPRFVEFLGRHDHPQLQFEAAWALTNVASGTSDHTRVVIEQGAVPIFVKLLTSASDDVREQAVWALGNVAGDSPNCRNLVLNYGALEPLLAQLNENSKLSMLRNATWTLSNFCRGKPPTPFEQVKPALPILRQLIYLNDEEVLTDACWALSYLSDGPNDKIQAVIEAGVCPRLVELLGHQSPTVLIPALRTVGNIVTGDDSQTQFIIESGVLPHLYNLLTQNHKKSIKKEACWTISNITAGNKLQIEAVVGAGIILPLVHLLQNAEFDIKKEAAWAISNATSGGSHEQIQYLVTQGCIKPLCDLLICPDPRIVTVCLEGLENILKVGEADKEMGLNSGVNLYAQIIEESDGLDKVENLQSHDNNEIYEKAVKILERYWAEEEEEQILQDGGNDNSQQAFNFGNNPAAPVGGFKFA
# UniProt O04294: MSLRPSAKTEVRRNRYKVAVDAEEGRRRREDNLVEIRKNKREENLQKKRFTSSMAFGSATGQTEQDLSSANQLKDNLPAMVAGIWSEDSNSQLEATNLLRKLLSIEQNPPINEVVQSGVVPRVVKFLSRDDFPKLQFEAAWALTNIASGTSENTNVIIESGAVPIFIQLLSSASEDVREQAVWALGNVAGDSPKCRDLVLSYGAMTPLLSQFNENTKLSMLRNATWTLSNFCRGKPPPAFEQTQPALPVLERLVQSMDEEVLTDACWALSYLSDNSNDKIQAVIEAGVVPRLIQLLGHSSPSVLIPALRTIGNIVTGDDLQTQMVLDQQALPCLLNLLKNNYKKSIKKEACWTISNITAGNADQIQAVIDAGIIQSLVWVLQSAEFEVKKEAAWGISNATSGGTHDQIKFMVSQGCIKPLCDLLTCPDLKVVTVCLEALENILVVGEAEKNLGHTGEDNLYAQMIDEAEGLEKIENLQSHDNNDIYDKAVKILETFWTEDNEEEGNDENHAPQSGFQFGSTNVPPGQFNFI
# T1: AUR1 (α Aurora kinase 1) with C-terminal GS^RHINO or GS^YELLOW TAP tag (A. thaliana) (UniProt Q9M077)
# T1 sequence: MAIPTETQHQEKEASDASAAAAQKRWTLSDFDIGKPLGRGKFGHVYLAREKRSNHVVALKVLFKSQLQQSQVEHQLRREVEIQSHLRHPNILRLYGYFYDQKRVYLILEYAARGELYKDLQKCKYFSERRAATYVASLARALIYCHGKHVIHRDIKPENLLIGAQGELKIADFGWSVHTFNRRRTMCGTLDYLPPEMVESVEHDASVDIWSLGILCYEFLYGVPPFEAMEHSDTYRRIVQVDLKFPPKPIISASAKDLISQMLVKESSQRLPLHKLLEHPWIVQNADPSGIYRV
# T2: AUR1 (α Aurora kinase 1) with GS^TEV TAP tag (A. thaliana) (UniProt Q9M077)
# T2 sequence: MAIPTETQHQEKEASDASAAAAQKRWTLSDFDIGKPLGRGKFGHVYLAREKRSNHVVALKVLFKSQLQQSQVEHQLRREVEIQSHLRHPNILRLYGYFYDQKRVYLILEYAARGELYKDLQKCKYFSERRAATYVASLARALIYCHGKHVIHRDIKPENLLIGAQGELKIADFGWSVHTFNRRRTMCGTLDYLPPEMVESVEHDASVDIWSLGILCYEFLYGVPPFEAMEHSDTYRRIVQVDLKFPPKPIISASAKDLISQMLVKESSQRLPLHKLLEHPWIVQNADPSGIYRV
# T3: AUR2 (α Aurora kinase 2) with GS^TEV TAP tag (A. thaliana) (UniProt Q683C9)
# T3 sequence: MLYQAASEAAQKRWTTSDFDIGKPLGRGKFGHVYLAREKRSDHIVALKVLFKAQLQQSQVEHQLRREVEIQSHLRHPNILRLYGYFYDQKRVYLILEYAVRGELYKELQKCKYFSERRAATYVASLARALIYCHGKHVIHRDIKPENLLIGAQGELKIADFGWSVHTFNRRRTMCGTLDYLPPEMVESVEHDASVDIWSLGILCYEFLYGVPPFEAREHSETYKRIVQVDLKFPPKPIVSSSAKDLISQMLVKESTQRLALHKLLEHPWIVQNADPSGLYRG
# Key:
# Assay in all cases: affinity purification with mass spectrometry
# [1] = target: T1, AUR1 (α Aurora kinase 1) with C-terminal GS^RHINO or GS^YELLOW TAP tag (A. thaliana)
# [2] = target: T2, AUR1 (α Aurora kinase 1) with GS^TEV TAP tag (A. thaliana)
# [3] = target: T3, AUR2 (α Aurora kinase 2) with GS^TEV TAP tag (A. thaliana)
# [4] = target: T1, AUR1 (α Aurora kinase 1) with C-terminal GS^RHINO or GS^YELLOW TAP tag (A. thaliana); remark: listed apart in the source
molecule,measurement,setting,value
IMPA1 (α importin 1) (from UniProt Q96321 1-532),binding,[1],binds
same,binding,[2],binds
same,binding,[3],binds
TPXL2 (TPX-Like2) (from UniProt F4JPV4),binding,[1],binds
same,binding,[2],binds
same,binding,[3],binds
TPXL3 (TPX-Like3),binding,[1],binds
same,binding,[2],binds
same,binding,[3],binds
IMPA2 (from UniProt F4JL11 1-535),binding,[1],binds
same,binding,[2],binds
same,binding,[3],binds
KPNB2 (karyopherin subunit beta 2),binding,[1],binds
IMPA4 (from UniProt O80480 1-538),binding,[1],binds
KPNB3 (karyopherin subunit beta 3),binding,[1],binds
IMPA3 (from UniProt O04294 1-531),binding,[1],binds
"TPX2 (protein, UniProt F4I2H7 1-790) MEATAEESVSTLVTTMVDETYEFLAPRWFDFVNGETEDESRRAELWFQSALSCAPSPSVPRIKARRSFKVEAMCNFNEAEEETLKDKEPLEPVVPIVSLQSQPSQAKKAEVAPSKASTVKPSRISSKDAEVNNKTVDASDPTTEPIEDKENIAPACTPKPPMQFSLGAKSVDLKKQQTARKIASLLKNPSTLRPKNQSQAKGSHQKSVKGETNLNNIASTTNLIQENQAIKRQKLDDGKSRQILNPKPATLLHKTRNGLVNTGFNLCPSVTKHTPKENRKVYVREQIAPFVSTAELMKKFQTSTRDLFVQNRPKLTLTRPKEPEFVTSQRARPLRVKSSAELEEEMLAKIPKFKARPVNKKILAAPALPAPQRSTPHLPEFQEFHLQTMARANQHAETSSIASTEVSKQHNDQKHHLTEPKSPVLQTMLRARPTIAKTTAELEQEELEKAPKFKAKPLNKKIFESKGEMGIFCNTKKHITIPQEFHFATDERISRPESVLDIFDKLSLNSESCHEKPLPRNTAPNPFNLKTEERGAEKEKKFYMELMYKKLGDVKARVPKANPYPYTTDYPVVPPKPEPKQCTQPEPFQLESLVRHEEEMRREREERRRMETEEAQKRLFKAQPVIKEDPIPVPEKVRMPLTEIQEFNLHVEHRAVERADFDHKIKEKENQYKRYREESEAAKMVEEERALKQMRKTMVPHARPVPNFNKPFLPQKSNKGTTKAKSPNLRVIKRTERRTMMARPTISAATSASAVHCLMYPGSSFNKLKKKTVLTNIVHCLMYPDSSLLN",binding,[4],binds
"IMPA6 (protein, UniProt Q9FWY7 1-538) MSYKPSAKTEVRRNRYKVSVDADEGRRRREDNMVEIRKNKREENLQKKRREGFNPSMASQPGQDFSSSLPTETRLENIQQMIAGVMSEDRDLQLEATASFRRLLSIERNPPINEVVQSGVVPHIVQFLSRDDFTQLQFEAAWALTNIASGTSENTRVIIDSGAVPLFVKLLSSASEEVREQAVWALGNVAGDSPKCRDHVLSCEAMMSLLAQFHEHSKLSMLRNATWTLSNFCRGKPQPAFEQTKAALPALERLLHSTDEEVLTDASWALSYLSDGTNEKIQTVIDAGVIPRLVQLLAHPSPSVLIPALRTIGNIVTGDDIQTQAVISSQALPGLLNLLKNTYKKSIKKEACWTISNITAGNTSQIQEVFQAGIIRPLINLLEIGEFEIKKEAVWAISNATSGGNHDQIKFLVSQGCIRPLCDLLPCPDPRVVTVTLEGLENILKVGEAEKNLGNTGNDNLYAQMIEDADGLDKIENLQSHDNNEIYEKAVKILESYWAADDEEEDIGGVDAPENVQSSGFQFGNQSGNAPTGGFNFG",binding,[4],binds
"KPNB1 (karyopherin subunit beta 1) (protein, UniProt Q9FJD4 1-870) MAMEVTQLLINAQSIDGTVRKHAEESLKQFQEQNLAGFLLSLAGELANDEKPVDSRKLAGLVLKNALDAKEQHRKYELVQRWLALDMSTKSQIRAFLLKTLSAPVPDVRSTASQVIAKVAGIELPQKQWPELIVSLLSNIHQLPAHVKQATLETLGYLCEEVSPDVVEQEHVNKILTAVVQGMNAAEGNTDVRLAATRALYMALGFAQANFNNDMERDYIMRVVCEATLSPEVKIRQAAFECLVSIASTYYEKLAHYMQDIFNITAKAVREDDESVALQAIEFWSSICDEEIDILEEYGGEFAGDSDVPCFYFTKQALPGLVPLLLETLLKQEEDQDLDEGAWNIAMAGGTCLGLVARAVGDDIVPHVMPFIEEKISKPDWREREAATYAFGSILEGPSADKLMAIVNAALTFMLNALTNDPSNHVKDTTAWTLGRIFEFLHGSTIETPIINQANCQQIITVLIQSMNDAPNVAEKACGALYFLAQGYEDIGPSSPLTPFFQEIIKSLLAVAHREDATESRLRTAAYEALNEVVRCSTDETSTMVLQLVPVIMMELHNTLEGEKLSLDEREKQNELQGLLCGCLQVIIQKLGSEPTKSKFMEYADQMMGLFLRVFGCRSATAHEEAMLAIGALAYAAGPNFAKYMPEFYKYLEMGLQNFEEYQVCAVTVGVVGDVCRALEDKILPYCDGIMTQLLKDLSSNQLHRSVKPPIFSCFGDIALAIGEDFDKYWRYSMPMLQSAAELSAHSAGADDEMTEYTNSLRNGILEAYSGIFQGFKNSAKTQLLIPFAPHILQFLDSIYMEKDMDEVVMKTAIGVLGDLADTLGSHVGGLIQQSVSSKEFLNECLSSEDHTIKEAAEWAKHAITRAISV",binding,[4],binds
